In patent EP4650362A1 (Beijing Tuo Jie Biopharmaceutical Co. Ltd., priority 2023, dated 2024):

Assay: general procedure: Fmoc solid-phase peptide synthesis; Fmoc-Val-Wang resin
Settings: whole synthesis, WATERS H-CLASS analytical UHPLC, ReproSil-Pur Basic C-18, scale of the general procedure 0.1 mmol

Row | Substance | final HPLC purity
1 | PEPTIDE1{[dY].G.[dR].[dK].[dK].[dR].[dR].[dQ].[dR].[dR].[dR].G.[Aib].[Dab].T.[Chg].[Tle].S.D.V}$$$$V2.0 | 98.95%
2 | y-G-r-k-k-r-r-q-r-r-r-G-Aib-Dab-homoArg-Tle-Tle-T-D-V | 98.68%
3 | PEPTIDE1{[dY].G.[dR].[dK].[dK].[dR].[dR].[dQ].[dR].[dR].[dR].[Nle].T.T.[Tle].[Tle].T.D.V}$$$$V2.0 | 97.93%
4 | y-G-r-k-k-r-r-q-r-r-r-G-T-Tle-Tle-T-D-V | 97.06%
5 | y-G-r-k-k-r-r-q-r-r-r-AEEA-Tle-Tle-T-D-V | 98.73%
6 | PEPTIDE1{[dY].G.[dR].[dK].[dK].[dR].[dR].[dQ].[dR].[dR].[dR].T.[homoArg].[homoArg].I.T.D.V}$$$$V2.0 | 98.77%
7 | PEPTIDE1{[dR].K.K.R.[dR].Q.R.R.[dR].G.[Aib].[Dab].T.[Tle].[Tle].T.D.V}$$$$V2.0 | 97.82%
8 | PEPTIDE1{[dY].G.[dR].[dK].[dK].[dR].[dR].[dQ].[dR].[dR].[dR].G.[Aib].[Dab].T.[Tle].[Tle].T.D.V}$$$$V2.0 | 97.92%
9 | y-G-r-k-k-r-r-q-r-r-r-G-T-Chg-Tle-S-D-V | 98.54%

Same assay, conditions: whole synthesis, scale 0.1 mmol

Row | Substance | isolated yield
10 | PEPTIDE1{[dY].G.[dR].[dK].[dK].[dR].[dR].[dQ].[dR].[dR].[dR].G.[Aib].[Dab].T.[Tle].[Tle].T.D.V}$$$$V2.0 | about 20%

Some peptides are written in HELM: one residue between dots, names in brackets for other building blocks, links after the first $.
